These are yes or no findings as the source states them, for the method shown. Some binding calls cover weakened binding; strength is not graded here.
Target: T1, recombinant huADAM10D+C protein (human, UniProt O14672 455-646)
T1 construct: the whole entry is named here (the bovine construct was 455-646); also called huADAM10D+C domain protein; immobilised recombinant huADAM10D+C
T1 sequence: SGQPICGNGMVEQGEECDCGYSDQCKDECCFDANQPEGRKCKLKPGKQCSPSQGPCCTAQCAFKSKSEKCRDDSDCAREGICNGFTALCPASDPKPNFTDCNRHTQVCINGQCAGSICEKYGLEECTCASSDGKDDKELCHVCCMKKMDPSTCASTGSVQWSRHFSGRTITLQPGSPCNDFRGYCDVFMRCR
Assay: SPR, BIAcore 3000

binding: binds
B1: hu8C7, fully humanised version of 8C7 (antibody, human IgG1, kappa, V domains shown)
VH: EVQLQQSGAELAKPGSSVKLSCKASGYTFTNYWLQWVKQRPGQGLEWIGAIYPRDGDAKYSQKFKDKASITVNESTSTAYMHLSSLRSEDTAVYYCARANYGLYYAMDRWGQGTTVTVSS
VL: DIVLTQSPAFMSVSPGERVSVSCRASQNIGTNIHWYQQRPDQSPRLLIKYASESISGIPSRFSGSGSGTDFYLTINSVESEDIAVYFCQQSNRWPFTFGSGTKLEVKR
notes: Human IgG1-kappa; humanised variable domains replaced the murine ones in the ch8C7 constructs; The exact V/C junction is not described; also called humanized 8C7
